Laboratory results as given in article PMC7375819.
Results are given in words; binding and its absence hold for the method and conditions named. Some results given as binding are weak or reduced against the parent protein; the word gives no strength.

Amino acid sequences for entries named in this document (tags omitted).
UniProt P49951: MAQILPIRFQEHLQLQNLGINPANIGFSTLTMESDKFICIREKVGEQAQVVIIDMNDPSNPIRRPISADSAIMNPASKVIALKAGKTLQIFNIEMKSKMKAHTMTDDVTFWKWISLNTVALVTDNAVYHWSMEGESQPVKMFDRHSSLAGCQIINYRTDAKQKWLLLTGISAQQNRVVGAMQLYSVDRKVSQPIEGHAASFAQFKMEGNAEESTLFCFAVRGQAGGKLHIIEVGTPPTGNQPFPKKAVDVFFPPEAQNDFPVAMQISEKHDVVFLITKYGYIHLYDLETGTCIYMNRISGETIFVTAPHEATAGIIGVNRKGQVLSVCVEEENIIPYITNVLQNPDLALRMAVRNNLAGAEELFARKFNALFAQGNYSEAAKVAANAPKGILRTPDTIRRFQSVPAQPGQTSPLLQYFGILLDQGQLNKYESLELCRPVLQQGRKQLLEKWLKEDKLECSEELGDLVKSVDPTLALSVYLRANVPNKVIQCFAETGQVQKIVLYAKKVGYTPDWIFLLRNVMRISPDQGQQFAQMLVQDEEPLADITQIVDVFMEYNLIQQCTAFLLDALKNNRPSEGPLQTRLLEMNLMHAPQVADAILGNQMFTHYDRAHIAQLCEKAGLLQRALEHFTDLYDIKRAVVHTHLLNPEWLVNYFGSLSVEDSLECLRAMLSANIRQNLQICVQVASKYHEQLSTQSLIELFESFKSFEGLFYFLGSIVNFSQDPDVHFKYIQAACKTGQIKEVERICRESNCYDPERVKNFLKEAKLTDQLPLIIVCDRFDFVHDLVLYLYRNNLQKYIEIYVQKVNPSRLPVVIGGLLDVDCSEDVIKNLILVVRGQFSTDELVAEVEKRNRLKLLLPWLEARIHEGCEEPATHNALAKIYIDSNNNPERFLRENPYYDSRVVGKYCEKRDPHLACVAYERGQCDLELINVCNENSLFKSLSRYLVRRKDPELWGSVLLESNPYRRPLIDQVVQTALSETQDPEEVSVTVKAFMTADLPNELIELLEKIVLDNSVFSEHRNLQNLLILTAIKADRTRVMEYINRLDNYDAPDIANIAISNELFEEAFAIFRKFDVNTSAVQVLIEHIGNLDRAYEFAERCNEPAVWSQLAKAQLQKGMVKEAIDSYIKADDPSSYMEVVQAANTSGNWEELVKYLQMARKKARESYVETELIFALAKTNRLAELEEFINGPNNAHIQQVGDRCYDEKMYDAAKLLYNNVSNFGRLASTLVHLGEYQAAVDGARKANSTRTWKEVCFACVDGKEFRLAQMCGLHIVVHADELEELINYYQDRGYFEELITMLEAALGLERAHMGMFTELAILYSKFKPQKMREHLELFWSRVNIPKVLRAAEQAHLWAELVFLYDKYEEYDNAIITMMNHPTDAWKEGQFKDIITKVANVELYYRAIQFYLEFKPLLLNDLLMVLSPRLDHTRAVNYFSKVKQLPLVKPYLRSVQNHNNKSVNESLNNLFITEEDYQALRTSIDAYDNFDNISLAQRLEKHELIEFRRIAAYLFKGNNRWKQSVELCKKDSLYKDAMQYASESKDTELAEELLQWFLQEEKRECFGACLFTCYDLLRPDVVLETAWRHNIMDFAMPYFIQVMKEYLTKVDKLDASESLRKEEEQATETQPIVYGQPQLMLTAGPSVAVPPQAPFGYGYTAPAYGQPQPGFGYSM
UniProt P63009: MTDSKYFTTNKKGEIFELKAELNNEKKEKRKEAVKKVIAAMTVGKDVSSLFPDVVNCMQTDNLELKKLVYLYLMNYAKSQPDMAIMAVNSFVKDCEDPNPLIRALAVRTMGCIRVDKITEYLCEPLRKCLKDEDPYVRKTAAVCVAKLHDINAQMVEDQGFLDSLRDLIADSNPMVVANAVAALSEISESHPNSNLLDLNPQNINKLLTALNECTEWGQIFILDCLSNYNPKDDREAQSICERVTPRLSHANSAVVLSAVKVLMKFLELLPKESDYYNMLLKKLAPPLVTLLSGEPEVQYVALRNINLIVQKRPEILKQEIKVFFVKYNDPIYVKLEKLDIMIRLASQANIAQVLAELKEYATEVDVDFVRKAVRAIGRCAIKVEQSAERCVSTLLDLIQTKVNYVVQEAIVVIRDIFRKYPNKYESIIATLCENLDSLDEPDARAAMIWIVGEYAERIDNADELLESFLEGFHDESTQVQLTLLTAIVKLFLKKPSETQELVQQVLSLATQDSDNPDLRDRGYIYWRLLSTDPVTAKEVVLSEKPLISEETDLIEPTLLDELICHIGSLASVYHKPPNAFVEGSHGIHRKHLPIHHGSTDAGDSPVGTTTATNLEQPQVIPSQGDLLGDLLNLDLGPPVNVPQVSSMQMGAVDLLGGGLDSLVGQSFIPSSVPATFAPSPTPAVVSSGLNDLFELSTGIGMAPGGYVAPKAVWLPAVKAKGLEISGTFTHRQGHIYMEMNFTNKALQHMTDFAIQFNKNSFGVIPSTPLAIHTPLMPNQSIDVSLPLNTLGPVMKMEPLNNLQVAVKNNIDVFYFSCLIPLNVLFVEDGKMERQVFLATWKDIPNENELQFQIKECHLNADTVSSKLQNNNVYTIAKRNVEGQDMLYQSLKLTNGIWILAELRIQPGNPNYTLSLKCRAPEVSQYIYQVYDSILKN

Biological target: clathrin heavy chain (Bos taurus (endogenous in cow brain)) (UniProt P49951)
Experiment: cryo-EM structure; single-particle cryo-EM of natively assembled clathrin-coated vesicles purified from bovine brain in MES buffer pH 6.7 at 4°C; five cage geometries; subparticle refinement of the mini-coat asymmetric vertex (6.3 Å, atomic model PDB 6WCJ) and of hexagonal and pentagonal faces

| Substance | binding |
| --- | --- |
| AP2 β2 adaptin (from UniProt P63009 1-937) | binds |
| clathrin heavy chain (from UniProt P49951 1-1675) | binds |
